Assay results as given in publication PMC11203437, “Subtle Structural Differences Affect the Inhibitory Potency of RGD-Containing Cyclic Peptide Inhibitors Targeting SPSB Proteins” (International Journal of Molecular Sciences, 2024).
These are yes or no findings as the source states them, for the method shown. Some entries that bind do so weakly or less than the wild type. Where a sequence is shown, tags or fusion partners need not be part of it.

T1: GST-tagged SPRY domain of human SPSB2 (human) (UniProt Q99619)
T1 sequence: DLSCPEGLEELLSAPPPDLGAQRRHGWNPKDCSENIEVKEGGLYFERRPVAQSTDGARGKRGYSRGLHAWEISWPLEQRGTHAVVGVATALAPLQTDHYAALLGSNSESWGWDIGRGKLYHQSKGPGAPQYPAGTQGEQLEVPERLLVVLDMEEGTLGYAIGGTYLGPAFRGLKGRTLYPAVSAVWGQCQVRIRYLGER


Biological target: T1, GST-tagged SPRY domain of human SPSB2 (human)
Assay: pull-down; competition: 1 μM or 10 μM cyclic peptide added to the RAW 264.7 lysate with 2 μg/mL GST-tagged SPRY domain for 2 h; iNOS recovered on glutathione sepharose 4B read by Western blot; both purified

Row | binding | Binder
1 | binds | RGDINNN (head-to-tail amide-cyclized) [cR7, cyclo(RGDINNN)]
2 | binds | RGDINNNVE (head-to-tail amide-cyclized) [cR9, cyclo(…)]
